The values below come from the supplement of paper PMC7752906.

Where a name gives a salt, the structure may show the parent alone. This is one part of the list. Repeats in this data set agree poorly, so a single value says little.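 About 40 Schistosoma mansoni schistosomula per well were imaged over time in bright field and compared with 0.1% DMSO wells. A drug counts as a hit if its Mahalanobis distance reaches 2.47 or more, three standard deviations above the DMSO control mean. Degeneracy is the fraction of worms scored opaque.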 Bridge positions count the residues as written; N and C are the ends. Square brackets hold non-standard residues; d marks the D form. Peptide text beside a SMILES is read from it. * marks the point of attachment. Ileψ(thiazoline)Cys = CC[C@H](C)[C@H](N)C1=N[C@H](C(=O)*)CS1; dOrn = NCCC[C@@H](N)C(=O)O

This assay concerns Schistosoma mansoni schistosomula. The experiment in a line: degeneracy (percent of somules classified as degenerate/opaque); higher = more parasite degeneration/death; extreme values may be limits of the assay. Particulars: 10 µM; 72 h.
Molecule `CC[C@]1(O)C[C@H]2CN(CCc3c([nH]c4ccccc34)[C@@](C(=O)OC)(c3cc4c(cc3OC)N(C=O)[C@H]3[C@@](O)(C(=O)OC)[C@H](OC(C)=O)[C@]5(CC)C=CCN6CC[C@]43[C@@H]65)C2)C1` [Vincristine] gave a degeneracy of 20.8%. `Cc1c(N(C)C)c(=O)n(-c2ccccc2)n1C` [Aminopyrine] returned a degeneracy of 6.98%. Molecule `CCN(CC)CCNC(=O)c1c(C)[nH]c(/C=C2\C(=O)Nc3ccc(F)cc32)c1C` [Sunitinib Malate] came in with a degeneracy of 100%. As for `CN(C)C(=O)C(CCN1CCC(O)(c2ccc(Cl)cc2)CC1)(c1ccccc1)c1ccccc1` [Loperamide], the degeneracy was determined as 46.7%. The value for `CO/N=C(\C(=O)N[C@@H]1C(=O)N2C(C(=O)O)=C(CSc3nnnn3C)CS[C@H]12)c1csc(N)n1` [Cefmenoxime Hydrochloride] was 18.2%; that for `C[C@H]1O[C@@H](O[C@H]2[C@@H](O)C[C@H](O[C@H]3[C@@H](O)C[C@H](O[C@H]4CC[C@@]5(C)[C@H](CC[C@@H]6[C@@H]5C[C@@H](O)[C@]5(C)[C@@H](C7=CC(=O)OC7)CC[C@]65O)C4)O[C@@H]3C)O[C@@H]2C)C[C@H](O)[C@@H]1O` [Digoxin] was 100%; that for `C[C@H](CCC(=O)O)[C@H]1CC[C@H]2[C@@H]3[C@H](O)C[C@@H]4C[C@H](O)CC[C@]4(C)[C@H]3C[C@H](O)[C@]12C` [Cholic Acid] was 12.8%. The molecule `Cc1c(OCC(F)(F)F)ccnc1C[S@@+]([O-])c1nc2ccccc2[nH]1` [Dexlansoprazole] returned a degeneracy of 5%. The value for `O=C(OCC(O)CO)c1ccccc1Nc1ccnc2cc(Cl)ccc12` (centres undefined) [Glafenine] was 13.6%; that for `Nc1nc2ccc(OC(F)(F)F)cc2s1` [Riluzole] was 39.5%; that for `O=C(C1CCCCC1)N1CC(=O)N2CCc3ccccc3C2C1` (centres undefined) [praziquantel] was 77.8%. To `COc1ccc2c(c1OC)C(=O)O[C@@H]2[C@H]1c2c(cc3c(c2OC)OCO3)CCN1C` [Noscapine Hydrochloride] belongs 3.03%; to `CCOC(=O)O[C@]1(C(=O)COC(=O)CC)CC[C@H]2[C@@H]3CCC4=CC(=O)C=C[C@]4(C)[C@H]3[C@@H](O)C[C@@]21C` [Prednicarbate], 6.06%; to `CC(C)(C)NCC(O)COc1cccc2c1CCC(=O)N2` (centres undefined) [Carteolol Hydrochloride], 3.12%. On to `CC(S)C(=O)NCC(=O)O` (centres undefined) [Tiopronin], for which the degeneracy stood at 3.03%. For `COc1ccc(OC)c(C(O)CNC(=O)CN)c1` (centres undefined) [Midodrine], the degeneracy amounted to 0%. Consider `CN1CCN(CCCN2c3ccccc3Sc3ccc(C(F)(F)F)cc32)CC1` [trifluoperazine], for which the degeneracy was 100%. As for `OC(CNCC(O)C1CCc2cc(F)ccc2O1)C1CCc2cc(F)ccc2O1` (centres undefined) [Nebivolol Hydrochloride], the degeneracy was 8.11%. To `CC[C@H](C)[C@H](N)C1=N[C@H](C(=O)N[C@@H](CC(C)C)C(=O)N[C@H](CCC(=O)O)C(=O)N[C@H](C(=O)N[C@H]2CCCCNC(=O)[C@H](CC(N)=O)NC(=O)[C@@H](CC(=O)O)NC(=O)[C@H](Cc3cnc[nH]3)NC(=O)[C@@H](Cc3ccccc3)NC(=O)[C@H]([C@@H](C)CC)NC(=O)[C@@H](CCCN)NC2=O)[C@@H](C)CC)CS1` [Bacitracin] ({Ileψ(thiazoline)Cys}-L[dE]IK[dOrn]I[dF]H[dD]N; lactam 4-C) belongs 3.85%.

`CC(=O)NS(=O)(=O)c1ccc(NC(=O)c2ccccc2C(=O)O)cc1` [Phthalylsulfacetamide]: the degeneracy came to 7.14%. In turn, `CN(C)CCOC(C)(c1ccccc1)c1ccccn1` (centres undefined) [Doxylamine Succinate] returned a degeneracy of 7.14%. In turn, `C=CCNC(N)=S` [Allylthiourea] yielded a degeneracy of 0%. In turn, `Oc1c(I)cc(Cl)c2cccnc12` [Clioquinol] gave a degeneracy of 100%. `CN(C(=O)C(Cl)Cl)c1ccc(OC(=O)c2ccco2)cc1` [Diloxanide Furoate] had a degeneracy of 5.41%.

Consider `Cc1cc2c(cc1S(N)(=O)=O)S(=O)(=O)CCC2` [Meticrane], for which the degeneracy was 14.3%.

In the case of `CC1(C)S[C@@H]2[C@H](NC(=O)[C@H](NC(=O)N3CCNC3=O)c3ccccc3)C(=O)N2[C@H]1C(=O)O` [Azlocillin], the degeneracy was determined as 0%. The value for `CC(C)c1ccc2oc3nc(N)c(C(=O)O)cc3c(=O)c2c1` [Amlexanox] was 4.44%; that for `NC(=O)c1cc[n+](CC2=C(C(=O)O)N3C(=O)[C@@H](NC(=O)[C@@H](c4ccccc4)S(=O)(=O)[O-])[C@H]3SC2)cc1` [Cefsulodin Sodium] was 0%. To `COC(=O)Nc1nc2cc(C(=O)c3ccccc3)ccc2[nH]1` [Mebendazole] belongs 5.71%.

In turn, `CCCCCCc1ccc(O)cc1O.Nc1c2ccccc2nc2ccccc12` [Acrisorcin] yielded a degeneracy of 100%.

In turn, `O=C(O)c1cccnc1Nc1cccc(C(F)(F)F)c1` [Niflumic Acid] displayed a degeneracy of 2.22%. Regarding `CC1CC(OC(=O)C(O)c2ccccc2)CC(C)(C)C1` (centres undefined) [Cyclandelate], the degeneracy came out at 100%. To `CC(CCc1ccccc1)NCC(O)c1ccc(O)c(C(N)=O)c1` (centres undefined) [Labetalol] belongs 13.3%; to `CCOC(=O)[C@H](CCc1ccccc1)N[C@@H](C)C(=O)N1Cc2ccccc2C[C@H]1C(=O)O` [Quinapril], 15.6%; to `Cc1onc(-c2c(Cl)cccc2Cl)c1C(=O)N[C@@H]1C(=O)N2[C@@H]1SC(C)(C)[C@@H]2C(=O)O` [Dicloxacillin Sodium], 13%. The value for `CN1C(C)(C)CCCC1(C)C` [Pempidine Tartrate] was 6.06%; that for `CC[N+](C)(C)Cc1ccccc1Br` [Bretylium Tosylate] was 0%; that for `CC(C)(C(=O)O)c1ccc(C(O)CCCN2CCC(C(O)(c3ccccc3)c3ccccc3)CC2)cc1` (centres undefined) [Fexofenadine] was 5.41%. To `CN(C)CCCN1c2ccccc2Sc2ccccc21` [Promazine] belongs 100%; to `CC(C(=O)O)c1ccc2c(c1)Cc1cccnc1O2` (centres undefined) [Pranoprofen], 4.17%; to `Cc1c(C)c2c(c(C)c1O)CCC(C)(COc1ccc(CC3SC(=O)NC3=O)cc1)O2` (centres undefined) [Troglitazone], 100%.

For the molecule `Oc1ncnc2[nH]ncc12` [Allopurinol], the degeneracy came out at 0%. The value for `CCOC(=O)C1=C[C@@H](OC(CC)CC)[C@H](NC(C)=O)[C@@H](N)C1` [Oseltamivir] was 4.76%; that for `C[C@]12CCC(=O)C=C1CC[C@@H]1[C@@H]2[C@@H](O)C[C@@]2(C)[C@H]1CC[C@]2(O)C(=O)CO` [Hydrocortisone] was 5.41%.
